Reference: patent US11786603 (dated 2023)

Test: general procedure: peptide synthesis; HATU/DIPEA
Settings: conjugation step

In the case of DIBAC-Suc-PEG4-VC-PAB-MMAE, the conjugation yield was 19.6%.
